# Laboratory results taken from US20260286396A1, “AXL KNOCK OUT CAR T CELLS AND METHODS FOR USE THEREOF” (priority 2023, published 2026).
# Test system: CART19 cells
# Experiment: RNA sequencing of CART19 cells with Ingenuity pathway analysis (pathways, upstream regulators)
# Format: cell-based, human
# Method: CART19 cells were isolated using CD4 and CD8 microbeads to […] the JeKo-1 target cells; this isolation step was performed twice to eliminate the possible contamination of JeKo-1 cells. RNA was isolated from the CART19 cells using QIAGEN RNEASY® Plus Mini Kit. RNA was further treated with DNase I (QIAGEN) and purified using RNA Clean & Concentrator (Zymo Research). […] The fastq files were viewed in FastQC to check for quality (Cox et al., Mol Ther., 29 (4): 1529-1540, 2020). After verifying the lack of adapter sequences with FastQC, Cutadapt (Martin, EMBnet, 17:10-12, 2011) was used to filter for reads greater than 32 base pairs. Output files were re-checked for quality using FastQC. The latest human reference genome (GRCh38.p13) was downloaded from NCBI. Genome index files were generated using STAR (Cox et al. 2020, supra, and Dobin et al., Bioinformatics, 29:15-21, 2012). Paired end reads from fastq files were mapped to the genome for each condition. HTSeq was used to generate expression counts for each gene (Cox et al. 2020, supra; and Putri et al., Bioinformatics, 38:2943-2945, 2022). […] The disruption efficiency of the CRISPR/Cas9 GM-CSF knockout was determined using targeted sequencing through PCR and TIDE analysis (software available at tide.nki.nl) as described elsewhere (Sakemura et al. 2021, supra).
# RNA sequencing of CART19 cells was then performed. […] Data were analyzed with the use of QIAGEN Ingenuity Pathway Analysis (IPA) (digitalinsights.qiagen.com/IPA; Krämer et al., Bioinformatics 30 (4): 523-530, 2014).
# [1] = 30 nM TP-0903, JeKo-1 stimulation 24 hours
# [2] = 30 nM TP-0903, irradiated JeKo-1, 5 days
structure (smiles),measurement,setting,value
"CN1CCN(Cc2ccc(Nc3ncc(Cl)c(Nc4ccccc4S(=O)(=O)N(C)C)n3)cc2)CC1 [TP-0903, Dubermatinib]",significantly downregulated genes,[1],414
same,significantly upregulated genes,[1],322
same,"downregulated genes (heatmap, FIG. 12C)",[2],34
same,"upregulated genes (heatmap, FIG. 12C)",[2],85
